Experimental data: PubChem BioAssay AID1508588 (Peter MacCallum Cancer Centre, 2020)
The deposit covers about 18,000 reagents; this is an unselected part. 790 of all reagents (4.4%) count as active. 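Calls rest on a combination of fold-change classes in drug and vehicle arms, not all shown here.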

- Screen: 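Which gene losses make BRAF-mutant melanoma cells more responsive to vemurafenib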 (primary screen)
- Cells: human WM266.4 melanoma cells (BRAF V600 mutant)
- Knock-down reagent: siRNA pool against human genes, 40 nM
- Time to read-out: 96 h from transfection to read-out
- Treatment: vemurafenib 300 nM (about IC25), added 48 h after transfection, for 48 h; comparison arm got DMSO vehicle only
- Detection: 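Ratios to non-targeting siRNA for cell gain, counted as DAPI nuclei after minus before drug and averaged over two replicates, and for absorbance-read medium lactate per cell; both binned into fold-change classes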
- Reading the numbers: cell gain with vemurafenib: higher = more cell gain than with non-targeting siRNA; lactate per cell with vemurafenib: higher = more lactate made per cell
- Active means: 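a knock-down counts as enhancing when its fold-change classes with vehicle and with vemurafenib, taken together, show a stronger drug effect on cell gain or lactate per cell; exact class pairs not stated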
- Calls: active = enhances vemurafenib effect; inactive = no enhancement seen

After knock-down of GPR141 the results were cell gain with vemurafenib 0.31; lactate per cell with vemurafenib 1.29; inactive.
Against LOC401052 (retired record), the values are cell gain with vemurafenib 0.89; lactate per cell with vemurafenib 1.1; inactive.
Depletion of NBPF14 resulted in: cell gain with vemurafenib 0.55; lactate per cell with vemurafenib 1.54; inactive.
ZNF526 scored cell gain with vemurafenib 1.18; lactate per cell with vemurafenib 0.95; inactive.
SLC36A2 scored cell gain with vemurafenib 0.96; lactate per cell with vemurafenib 0.5; inactive.
KEL scored cell gain with vemurafenib 0.99; lactate per cell with vemurafenib 0.67; inactive.
Knock-down of ZNF680 gave: cell gain with vemurafenib 0.71; lactate per cell with vemurafenib 1.13; inactive.
For MPHOSPH9 the deposit lists cell gain with vemurafenib 1.26; lactate per cell with vemurafenib 0.38; inactive.
Silencing of VIPR2 resulted in: cell gain with vemurafenib 0.48; lactate per cell with vemurafenib 0.71; inactive.
For GABRA2, the values are cell gain with vemurafenib 0.98; lactate per cell with vemurafenib 0.6; inactive.
For BBS5, the entry reads cell gain with vemurafenib 0.63; lactate per cell with vemurafenib 0.69; inactive.
Against C1GALT1C1, the values are cell gain with vemurafenib 0.75; lactate per cell with vemurafenib 1.09; inactive.
With knock-down of TRMT10B, the screen gave cell gain with vemurafenib 0.77; lactate per cell with vemurafenib 1.01; inactive.
Knock-down of RIPOR2 resulted in: cell gain with vemurafenib 0.31; lactate per cell with vemurafenib 0.84; inactive.
Knock-down of KRT12 came out at: cell gain with vemurafenib 0.7; lactate per cell with vemurafenib 0.52; inactive.
Silencing of CHMP4A resulted in: cell gain with vemurafenib 0.72; lactate per cell with vemurafenib 0.64; inactive.
Depletion of OSTC resulted in: cell gain with vemurafenib 0.31; lactate per cell with vemurafenib 1.5; inactive.
Depletion of C1orf21 came out at: cell gain with vemurafenib 0.49; lactate per cell with vemurafenib 1.25; inactive.
For TMCO4 the deposit lists cell gain with vemurafenib 0.65; lactate per cell with vemurafenib 0.88; inactive.
With knock-down of ALDOB, the record shows cell gain with vemurafenib 0.86; lactate per cell with vemurafenib 0.99; inactive.
Against MAVS the deposit lists cell gain with vemurafenib 0.39; lactate per cell with vemurafenib 1.51; inactive.
After knock-down of TAX1BP1 the results were cell gain with vemurafenib 0.39; lactate per cell with vemurafenib 0.44; active.
For SRFBP1, the values are cell gain with vemurafenib 0.72; lactate per cell with vemurafenib 1.4; inactive.
Depletion of SLC9A5 resulted in: cell gain with vemurafenib 0.69; lactate per cell with vemurafenib 1.79; inactive.
Knock-down of DENND2B resulted in: cell gain with vemurafenib 0.61; lactate per cell with vemurafenib 0.84; inactive.
With knock-down of RPRD1B the results were cell gain with vemurafenib 0.9; lactate per cell with vemurafenib 0.89; inactive.
Knock-down of HNF1B resulted in: cell gain with vemurafenib 1.1; lactate per cell with vemurafenib 0.94; inactive.
Knock-down of ADARB2 came out at: cell gain with vemurafenib 0.83; lactate per cell with vemurafenib 1.23; inactive.
For GPR83, the entry reads cell gain with vemurafenib 0.67; lactate per cell with vemurafenib 0.88; inactive.
Silencing of PRKY came out at: cell gain with vemurafenib 0.34; lactate per cell with vemurafenib 2; inactive.
For LINGO4, the values are cell gain with vemurafenib 0.11; lactate per cell with vemurafenib 1.38; inactive.
Knock-down of GALNT13 came out at: cell gain with vemurafenib 0.78; lactate per cell with vemurafenib 0.94; inactive.
With knock-down of ATP5F1A, the record shows cell gain with vemurafenib 0.75; lactate per cell with vemurafenib 1.08; inactive.
SFMBT2 showed cell gain with vemurafenib 0.76; lactate per cell with vemurafenib 0.77; inactive.
HSH2D showed cell gain with vemurafenib 0.6; lactate per cell with vemurafenib 0.84; inactive.
With knock-down of KDM8 the results were cell gain with vemurafenib 0.76; lactate per cell with vemurafenib 0.48; inactive.
For PMCH the deposit lists cell gain with vemurafenib 0.54; lactate per cell with vemurafenib 0.55; inactive.
For EIF2B3, the entry reads cell gain with vemurafenib 0.7; lactate per cell with vemurafenib 0.64; inactive.
Depletion of BYSL resulted in: cell gain with vemurafenib 0.35; lactate per cell with vemurafenib 2.08; inactive.
Knock-down of FNBP1L resulted in: cell gain with vemurafenib 0.31; lactate per cell with vemurafenib 1.04; inactive.

Records listed so far whose gene name starts with B or b:
BBS5 — cell gain with vemurafenib = 0.63; lactate per cell with vemurafenib = 0.69; Outcome = inactive
BYSL — cell gain with vemurafenib = 0.35; lactate per cell with vemurafenib = 2.08; Outcome = inactive
